The list shows a part of the results, in another mix than the full data. The data scatter; read single values as rough.
Compound: COC(=O)/C=C/c1ccccc1 [methyl cinnamate]
Assay: log2 ratio of iodoacetamide-alkyne labeling of the cysteine site, DMSO over compound (competition); higher = stronger covalent engagement of the cysteine by the compound, active = 1 or more
Settings: 500 µM; treatment time 1 h; system: HEK293T cell lysate
Summary of the method: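 For each cysteine, the log2 competition ratio is mean control-channel reporter intensity over mean compound-channel reporter intensity. HEK293T lysate (2 mg/mL) was exposed to vehicle or electrophile (500 µM, 1 h, ambient temperature), labelled with iodoacetamide alkyne (1 h), clicked to sCIP-TMT reagents, digested overnight with trypsin at 37 °C, streptavidin-enriched and analysed by Orbitrap Eclipse LC-MS/MS with FAIMS and FragPipe. Cysteines quantified in only one of three replicates, each with duplicate channels, were excluded.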

Sequences of proteins named here, by UniProt entry; tags and fusion partners are left off. A change or cut given only in a name is not applied to a line headed by its entry.
UniProt Q9BY77: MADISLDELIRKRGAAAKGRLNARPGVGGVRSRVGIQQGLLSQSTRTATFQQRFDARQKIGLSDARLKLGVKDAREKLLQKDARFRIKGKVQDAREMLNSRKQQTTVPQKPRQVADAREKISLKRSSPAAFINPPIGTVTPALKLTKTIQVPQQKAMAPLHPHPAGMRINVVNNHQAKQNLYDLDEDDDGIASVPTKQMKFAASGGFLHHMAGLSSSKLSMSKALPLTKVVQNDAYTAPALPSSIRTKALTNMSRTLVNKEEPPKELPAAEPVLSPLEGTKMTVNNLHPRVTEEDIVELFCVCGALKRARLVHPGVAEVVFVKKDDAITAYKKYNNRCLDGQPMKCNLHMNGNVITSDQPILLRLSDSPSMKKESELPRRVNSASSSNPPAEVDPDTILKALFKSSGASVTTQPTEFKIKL
UniProt Q9C0E8: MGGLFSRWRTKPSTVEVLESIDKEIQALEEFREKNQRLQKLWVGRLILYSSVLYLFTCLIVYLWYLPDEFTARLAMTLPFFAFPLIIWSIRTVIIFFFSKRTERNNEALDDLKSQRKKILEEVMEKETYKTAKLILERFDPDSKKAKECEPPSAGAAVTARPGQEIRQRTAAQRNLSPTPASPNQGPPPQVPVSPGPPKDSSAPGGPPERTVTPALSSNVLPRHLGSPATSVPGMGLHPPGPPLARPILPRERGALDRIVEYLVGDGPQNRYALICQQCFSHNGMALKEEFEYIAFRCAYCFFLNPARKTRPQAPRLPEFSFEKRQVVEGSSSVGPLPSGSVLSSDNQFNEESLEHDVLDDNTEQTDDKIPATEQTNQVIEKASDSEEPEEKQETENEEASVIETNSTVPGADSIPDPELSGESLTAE
UniProt Q9GZT9: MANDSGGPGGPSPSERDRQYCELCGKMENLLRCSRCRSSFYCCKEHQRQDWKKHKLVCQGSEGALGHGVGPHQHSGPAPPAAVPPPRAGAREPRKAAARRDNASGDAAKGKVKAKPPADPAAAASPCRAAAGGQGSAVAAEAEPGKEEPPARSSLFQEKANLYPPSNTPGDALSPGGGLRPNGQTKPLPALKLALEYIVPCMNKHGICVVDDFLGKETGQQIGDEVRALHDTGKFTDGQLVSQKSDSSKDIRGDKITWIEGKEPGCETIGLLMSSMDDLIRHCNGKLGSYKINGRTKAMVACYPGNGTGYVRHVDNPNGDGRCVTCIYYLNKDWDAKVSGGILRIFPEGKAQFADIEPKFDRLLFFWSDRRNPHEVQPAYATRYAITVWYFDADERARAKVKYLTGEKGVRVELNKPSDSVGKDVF
UniProt Q9C0F1: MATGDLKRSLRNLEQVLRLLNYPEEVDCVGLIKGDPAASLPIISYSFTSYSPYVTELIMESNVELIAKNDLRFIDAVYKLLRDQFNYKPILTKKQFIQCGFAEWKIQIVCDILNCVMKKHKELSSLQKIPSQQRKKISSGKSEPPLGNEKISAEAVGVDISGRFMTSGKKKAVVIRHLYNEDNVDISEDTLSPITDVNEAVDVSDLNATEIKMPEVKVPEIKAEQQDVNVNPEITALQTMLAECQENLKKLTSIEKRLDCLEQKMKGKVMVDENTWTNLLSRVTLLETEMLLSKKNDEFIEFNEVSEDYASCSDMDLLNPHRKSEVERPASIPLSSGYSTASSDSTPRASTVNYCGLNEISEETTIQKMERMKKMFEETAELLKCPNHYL
UniProt Q9BXS6: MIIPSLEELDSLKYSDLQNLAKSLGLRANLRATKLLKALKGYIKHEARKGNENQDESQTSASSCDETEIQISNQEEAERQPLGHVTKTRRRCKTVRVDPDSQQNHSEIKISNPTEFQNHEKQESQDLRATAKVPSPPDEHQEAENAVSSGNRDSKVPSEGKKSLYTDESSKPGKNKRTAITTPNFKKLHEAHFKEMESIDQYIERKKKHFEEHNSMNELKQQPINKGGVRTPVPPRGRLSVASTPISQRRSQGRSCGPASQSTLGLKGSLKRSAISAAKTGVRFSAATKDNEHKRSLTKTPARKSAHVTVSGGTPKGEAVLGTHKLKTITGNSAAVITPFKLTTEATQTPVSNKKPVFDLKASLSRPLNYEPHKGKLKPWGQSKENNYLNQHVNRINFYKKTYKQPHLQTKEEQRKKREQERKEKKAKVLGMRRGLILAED
UniProt Q9H1Y0: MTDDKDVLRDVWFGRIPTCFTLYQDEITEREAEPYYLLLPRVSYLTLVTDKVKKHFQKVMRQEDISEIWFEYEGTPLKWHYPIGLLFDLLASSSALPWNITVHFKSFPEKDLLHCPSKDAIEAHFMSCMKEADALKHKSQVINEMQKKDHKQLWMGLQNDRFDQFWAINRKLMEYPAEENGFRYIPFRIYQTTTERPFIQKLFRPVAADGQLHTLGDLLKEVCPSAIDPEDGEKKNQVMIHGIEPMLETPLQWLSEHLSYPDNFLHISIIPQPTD
UniProt Q9C0C2: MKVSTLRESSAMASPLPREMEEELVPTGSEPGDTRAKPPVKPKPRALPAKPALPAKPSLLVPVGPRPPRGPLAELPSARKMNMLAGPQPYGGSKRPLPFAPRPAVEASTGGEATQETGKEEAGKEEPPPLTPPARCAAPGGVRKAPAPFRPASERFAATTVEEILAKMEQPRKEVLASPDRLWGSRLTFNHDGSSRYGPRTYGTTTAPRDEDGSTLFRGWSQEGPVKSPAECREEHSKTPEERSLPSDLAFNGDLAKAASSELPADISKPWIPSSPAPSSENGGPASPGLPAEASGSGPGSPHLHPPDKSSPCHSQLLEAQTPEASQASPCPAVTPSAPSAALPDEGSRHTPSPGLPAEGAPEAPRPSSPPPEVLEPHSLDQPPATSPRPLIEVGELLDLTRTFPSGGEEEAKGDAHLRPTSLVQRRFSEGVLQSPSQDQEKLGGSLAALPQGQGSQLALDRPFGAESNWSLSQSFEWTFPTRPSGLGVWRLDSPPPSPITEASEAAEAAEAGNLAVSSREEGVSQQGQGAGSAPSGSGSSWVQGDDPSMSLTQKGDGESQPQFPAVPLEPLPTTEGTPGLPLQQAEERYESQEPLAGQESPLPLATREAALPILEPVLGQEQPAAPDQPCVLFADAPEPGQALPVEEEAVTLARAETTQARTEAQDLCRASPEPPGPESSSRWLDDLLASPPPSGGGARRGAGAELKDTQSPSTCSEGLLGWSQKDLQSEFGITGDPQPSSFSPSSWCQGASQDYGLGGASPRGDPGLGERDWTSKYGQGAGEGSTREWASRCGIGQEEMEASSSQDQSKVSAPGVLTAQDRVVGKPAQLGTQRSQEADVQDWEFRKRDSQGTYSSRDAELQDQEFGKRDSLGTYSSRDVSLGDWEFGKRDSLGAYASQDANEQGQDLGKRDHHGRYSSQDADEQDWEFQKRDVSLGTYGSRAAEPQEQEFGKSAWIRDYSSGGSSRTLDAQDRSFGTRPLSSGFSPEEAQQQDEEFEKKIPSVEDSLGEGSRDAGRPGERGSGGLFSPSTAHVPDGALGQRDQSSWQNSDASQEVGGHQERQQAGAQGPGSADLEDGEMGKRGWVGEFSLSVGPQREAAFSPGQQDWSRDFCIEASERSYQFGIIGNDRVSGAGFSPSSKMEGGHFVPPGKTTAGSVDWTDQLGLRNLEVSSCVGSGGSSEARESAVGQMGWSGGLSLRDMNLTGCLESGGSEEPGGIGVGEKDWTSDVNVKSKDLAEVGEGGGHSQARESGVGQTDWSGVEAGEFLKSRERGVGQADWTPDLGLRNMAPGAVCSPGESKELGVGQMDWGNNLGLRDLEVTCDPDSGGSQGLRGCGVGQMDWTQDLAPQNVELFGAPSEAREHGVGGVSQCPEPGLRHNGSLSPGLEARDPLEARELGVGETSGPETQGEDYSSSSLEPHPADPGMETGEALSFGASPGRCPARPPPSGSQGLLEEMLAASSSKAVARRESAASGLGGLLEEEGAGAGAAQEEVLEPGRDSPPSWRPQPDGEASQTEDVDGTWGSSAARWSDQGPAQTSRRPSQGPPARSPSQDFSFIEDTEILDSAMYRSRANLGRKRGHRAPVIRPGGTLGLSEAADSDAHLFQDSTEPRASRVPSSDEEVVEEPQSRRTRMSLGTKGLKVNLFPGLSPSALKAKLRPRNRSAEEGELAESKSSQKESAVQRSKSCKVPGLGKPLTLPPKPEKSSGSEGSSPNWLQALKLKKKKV
UniProt Q9BXP5: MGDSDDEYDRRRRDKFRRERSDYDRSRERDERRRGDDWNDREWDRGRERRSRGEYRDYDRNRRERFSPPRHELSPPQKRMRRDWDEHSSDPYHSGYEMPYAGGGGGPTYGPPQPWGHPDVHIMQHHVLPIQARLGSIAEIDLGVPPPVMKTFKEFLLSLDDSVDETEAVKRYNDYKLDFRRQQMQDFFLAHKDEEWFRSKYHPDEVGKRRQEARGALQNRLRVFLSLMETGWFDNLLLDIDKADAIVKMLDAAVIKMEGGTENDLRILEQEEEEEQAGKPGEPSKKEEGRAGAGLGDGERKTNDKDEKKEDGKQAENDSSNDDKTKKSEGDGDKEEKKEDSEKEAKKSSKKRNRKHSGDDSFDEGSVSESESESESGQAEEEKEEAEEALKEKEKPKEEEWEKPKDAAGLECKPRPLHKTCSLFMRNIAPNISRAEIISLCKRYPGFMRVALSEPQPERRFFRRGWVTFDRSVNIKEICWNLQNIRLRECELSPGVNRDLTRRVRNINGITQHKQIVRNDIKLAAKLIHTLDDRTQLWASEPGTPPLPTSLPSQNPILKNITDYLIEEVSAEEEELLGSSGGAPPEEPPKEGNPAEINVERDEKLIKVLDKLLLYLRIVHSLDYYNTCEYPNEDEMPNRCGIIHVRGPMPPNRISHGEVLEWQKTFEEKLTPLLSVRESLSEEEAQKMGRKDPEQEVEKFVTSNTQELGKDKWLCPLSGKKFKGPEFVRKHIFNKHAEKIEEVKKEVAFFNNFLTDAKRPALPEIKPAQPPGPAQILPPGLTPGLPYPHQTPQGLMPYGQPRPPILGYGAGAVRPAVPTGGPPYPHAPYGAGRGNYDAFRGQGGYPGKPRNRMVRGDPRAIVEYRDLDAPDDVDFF
UniProt Q9H2G2: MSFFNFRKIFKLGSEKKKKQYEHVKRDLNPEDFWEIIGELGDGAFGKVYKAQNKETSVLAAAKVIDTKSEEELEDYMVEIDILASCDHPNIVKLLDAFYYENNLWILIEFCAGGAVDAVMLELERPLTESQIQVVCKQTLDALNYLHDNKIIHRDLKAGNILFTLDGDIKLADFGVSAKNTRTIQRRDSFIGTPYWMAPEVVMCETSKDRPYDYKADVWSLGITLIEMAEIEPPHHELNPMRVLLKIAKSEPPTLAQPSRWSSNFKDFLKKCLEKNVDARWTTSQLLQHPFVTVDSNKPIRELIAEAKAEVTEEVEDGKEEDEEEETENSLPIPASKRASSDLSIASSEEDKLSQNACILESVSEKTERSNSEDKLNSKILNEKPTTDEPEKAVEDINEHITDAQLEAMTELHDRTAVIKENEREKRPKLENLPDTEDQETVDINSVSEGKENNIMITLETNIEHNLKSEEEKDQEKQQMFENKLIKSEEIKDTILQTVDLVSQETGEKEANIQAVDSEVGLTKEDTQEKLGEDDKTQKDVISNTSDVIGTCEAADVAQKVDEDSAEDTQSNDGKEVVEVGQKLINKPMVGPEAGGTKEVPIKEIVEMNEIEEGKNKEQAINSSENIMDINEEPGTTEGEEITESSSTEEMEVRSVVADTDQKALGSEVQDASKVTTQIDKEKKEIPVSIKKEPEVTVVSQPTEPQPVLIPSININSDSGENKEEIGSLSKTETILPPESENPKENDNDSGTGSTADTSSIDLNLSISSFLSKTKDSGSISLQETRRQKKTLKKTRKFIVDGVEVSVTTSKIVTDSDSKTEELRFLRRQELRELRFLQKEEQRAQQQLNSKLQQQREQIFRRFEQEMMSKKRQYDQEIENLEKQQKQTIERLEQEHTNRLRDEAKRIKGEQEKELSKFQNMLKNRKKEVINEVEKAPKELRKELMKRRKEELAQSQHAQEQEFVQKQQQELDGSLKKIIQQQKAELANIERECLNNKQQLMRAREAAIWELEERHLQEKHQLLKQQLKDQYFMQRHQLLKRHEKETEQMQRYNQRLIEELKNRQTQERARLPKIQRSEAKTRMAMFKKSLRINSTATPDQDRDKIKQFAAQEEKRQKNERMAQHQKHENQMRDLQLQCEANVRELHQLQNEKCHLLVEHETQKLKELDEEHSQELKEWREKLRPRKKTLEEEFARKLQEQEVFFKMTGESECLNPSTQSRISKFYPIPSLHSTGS
UniProt Q9BQP7: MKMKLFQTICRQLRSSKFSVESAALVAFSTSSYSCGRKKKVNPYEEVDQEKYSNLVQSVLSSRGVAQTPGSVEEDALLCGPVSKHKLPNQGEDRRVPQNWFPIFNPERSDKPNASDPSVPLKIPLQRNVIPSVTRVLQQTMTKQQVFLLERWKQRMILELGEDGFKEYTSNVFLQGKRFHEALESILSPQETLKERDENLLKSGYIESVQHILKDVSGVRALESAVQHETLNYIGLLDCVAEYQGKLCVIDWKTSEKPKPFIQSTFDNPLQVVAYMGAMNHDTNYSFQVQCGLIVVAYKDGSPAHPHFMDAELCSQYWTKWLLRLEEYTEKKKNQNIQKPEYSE

Row | Target | log2 ratio of iodoacetamide-alkyne labeling
1 | DIDO1 C976 (UniProt Q9BTC0) | inactive: 0.336
2 | POLDIP3 C301 (UniProt Q9BY77) | inactive: -0.0678
3 | UniProt Q9C0E8_C149 | inactive: 0.3
4 | DIDO1 C1685 (UniProt Q9BTC0) | inactive: 0.525
5 | UniProt Q9H1E5_C326 | inactive: 0.218
6 | EGLN1 C201 (UniProt Q9GZT9) | inactive: 0.0087
7 | C20orf27 C156 (UniProt Q9GZN8) | inactive: -0.363
8 | UniProt Q9C0F1_C355 | inactive: 0.0159
9 | EGLN1 C127 (UniProt Q9GZT9) | inactive: 0.44
10 | NUSAP1 C256 (UniProt Q9BXS6) | inactive: 0.32
11 | HNRNPUL1 C291 (UniProt Q9BUJ2) | inactive: 0.103
12 | ATG5 C19 (UniProt Q9H1Y0) | inactive: 0.217
13 | TNKS1BP1 C136 (UniProt Q9C0C2) | inactive: 0.386
14 | UniProt Q9BXP5_C479 | inactive: 0.0362
15 | SLK C358 (UniProt Q9H2G2) | inactive: 0.308
16 | KIFC1 C663 (UniProt Q9BW19) | inactive: 0.23
17 | NAT10 C489 (UniProt Q9H0A0) | inactive: -0.182
18 | DDX24 C49 (UniProt Q9GZR7) | inactive: 0.378
19 | UBE2O C341 (UniProt Q9C0C9) | inactive: 0.00914
20 | KIFC1 C509 (UniProt Q9BW19) | inactive: 0.295
21 | UniProt Q9BQP7_C79 | inactive: 0.165
22 | PI4K2A C320 (UniProt Q9BTU6) | inactive: 0.0313

Shown tab-delimited: part of the list above
Row	Target	log2 ratio of iodoacetamide-alkyne labeling
3	UniProt Q9C0E8_C149	inactive: 0.3
17	NAT10 C489 (UniProt Q9H0A0)	inactive: -0.182
